The supplement of paper PMC12823440, “Inhibitors supercharge kinase turnover through native proteolytic circuits” (Nature, 2025)
Counter-ions that a name gives are not always drawn. The list shows a part of the results. Hit calls seldom repeat between salt and free forms of one compound.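 Kinases were expressed as nanoluciferase fusions in K562 cells and luminescence was read every 4 h between 2 and 18 h as percent of control, DMSO set to 100% and a positive control to 0%. A time point counts as decreased when the signal drops significantly (2 sigma). The hit call is the authors' own, does not follow from the count of time points alone, and its rule is not shown.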

Amino acid sequences for entries named in this document (tags omitted). A change or cut given only in a name is not applied to a line headed by its entry.
UniProt Q9UQM7, whole entry: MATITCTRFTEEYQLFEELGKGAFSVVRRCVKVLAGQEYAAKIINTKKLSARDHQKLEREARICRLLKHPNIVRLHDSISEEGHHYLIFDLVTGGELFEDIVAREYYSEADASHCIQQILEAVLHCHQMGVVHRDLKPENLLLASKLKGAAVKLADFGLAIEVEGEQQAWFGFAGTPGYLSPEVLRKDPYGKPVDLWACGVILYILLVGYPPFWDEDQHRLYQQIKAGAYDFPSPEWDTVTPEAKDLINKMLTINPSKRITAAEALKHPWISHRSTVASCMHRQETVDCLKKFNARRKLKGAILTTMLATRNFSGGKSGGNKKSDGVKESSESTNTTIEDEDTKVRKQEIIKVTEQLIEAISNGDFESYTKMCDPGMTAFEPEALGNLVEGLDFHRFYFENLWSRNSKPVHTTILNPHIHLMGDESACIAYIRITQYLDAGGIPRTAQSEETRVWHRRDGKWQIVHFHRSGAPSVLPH
UniProt Q13555: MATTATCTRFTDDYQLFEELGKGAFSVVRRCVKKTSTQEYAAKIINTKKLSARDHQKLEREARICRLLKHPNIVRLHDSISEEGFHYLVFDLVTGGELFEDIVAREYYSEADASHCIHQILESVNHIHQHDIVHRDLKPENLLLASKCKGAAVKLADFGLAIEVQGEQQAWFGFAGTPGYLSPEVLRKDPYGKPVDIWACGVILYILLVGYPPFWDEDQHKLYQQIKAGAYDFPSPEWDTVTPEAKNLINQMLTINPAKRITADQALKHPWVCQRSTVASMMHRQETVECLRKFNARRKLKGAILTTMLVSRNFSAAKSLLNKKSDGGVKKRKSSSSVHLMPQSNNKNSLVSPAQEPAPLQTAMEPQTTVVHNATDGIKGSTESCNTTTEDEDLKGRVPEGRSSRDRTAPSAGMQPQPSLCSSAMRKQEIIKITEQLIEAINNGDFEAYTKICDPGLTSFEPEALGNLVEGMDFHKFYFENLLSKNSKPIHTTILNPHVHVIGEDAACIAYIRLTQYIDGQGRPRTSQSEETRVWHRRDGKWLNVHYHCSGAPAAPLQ
UniProt Q15131: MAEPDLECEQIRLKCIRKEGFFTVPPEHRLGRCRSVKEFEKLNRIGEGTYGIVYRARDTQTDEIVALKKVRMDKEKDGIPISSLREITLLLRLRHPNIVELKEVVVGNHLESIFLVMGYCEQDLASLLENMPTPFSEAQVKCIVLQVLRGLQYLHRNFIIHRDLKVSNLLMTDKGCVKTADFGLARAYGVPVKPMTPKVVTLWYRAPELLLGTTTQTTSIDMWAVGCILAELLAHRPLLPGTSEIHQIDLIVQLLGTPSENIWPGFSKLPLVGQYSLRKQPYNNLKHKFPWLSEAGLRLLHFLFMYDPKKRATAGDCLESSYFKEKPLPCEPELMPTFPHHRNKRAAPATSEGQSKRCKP
UniProt Q00526: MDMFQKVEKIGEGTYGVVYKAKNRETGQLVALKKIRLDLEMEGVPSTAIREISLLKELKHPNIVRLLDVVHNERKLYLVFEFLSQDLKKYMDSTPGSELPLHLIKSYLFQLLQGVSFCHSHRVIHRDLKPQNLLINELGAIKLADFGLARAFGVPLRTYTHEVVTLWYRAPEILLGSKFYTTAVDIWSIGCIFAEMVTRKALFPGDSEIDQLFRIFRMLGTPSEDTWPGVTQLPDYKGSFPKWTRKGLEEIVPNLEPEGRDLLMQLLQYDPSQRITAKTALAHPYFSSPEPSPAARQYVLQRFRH
UniProt Q00535, whole entry, looked up: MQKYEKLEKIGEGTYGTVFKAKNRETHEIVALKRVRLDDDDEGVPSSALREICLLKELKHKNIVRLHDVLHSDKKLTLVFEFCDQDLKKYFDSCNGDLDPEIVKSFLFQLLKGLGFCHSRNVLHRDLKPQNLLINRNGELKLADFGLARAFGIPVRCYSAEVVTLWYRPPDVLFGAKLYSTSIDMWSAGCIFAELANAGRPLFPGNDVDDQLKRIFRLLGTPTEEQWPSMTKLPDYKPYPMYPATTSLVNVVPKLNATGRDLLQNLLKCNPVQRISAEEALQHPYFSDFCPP
UniProt Q00534, whole entry: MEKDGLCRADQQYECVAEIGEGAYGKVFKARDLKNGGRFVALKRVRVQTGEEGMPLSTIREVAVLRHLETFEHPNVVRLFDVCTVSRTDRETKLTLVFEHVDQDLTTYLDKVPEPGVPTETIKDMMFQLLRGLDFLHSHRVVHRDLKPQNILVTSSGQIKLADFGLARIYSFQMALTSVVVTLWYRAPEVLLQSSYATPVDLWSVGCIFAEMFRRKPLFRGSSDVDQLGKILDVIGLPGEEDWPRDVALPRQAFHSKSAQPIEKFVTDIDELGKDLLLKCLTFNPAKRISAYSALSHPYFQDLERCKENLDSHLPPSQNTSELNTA
UniProt O96017, whole entry: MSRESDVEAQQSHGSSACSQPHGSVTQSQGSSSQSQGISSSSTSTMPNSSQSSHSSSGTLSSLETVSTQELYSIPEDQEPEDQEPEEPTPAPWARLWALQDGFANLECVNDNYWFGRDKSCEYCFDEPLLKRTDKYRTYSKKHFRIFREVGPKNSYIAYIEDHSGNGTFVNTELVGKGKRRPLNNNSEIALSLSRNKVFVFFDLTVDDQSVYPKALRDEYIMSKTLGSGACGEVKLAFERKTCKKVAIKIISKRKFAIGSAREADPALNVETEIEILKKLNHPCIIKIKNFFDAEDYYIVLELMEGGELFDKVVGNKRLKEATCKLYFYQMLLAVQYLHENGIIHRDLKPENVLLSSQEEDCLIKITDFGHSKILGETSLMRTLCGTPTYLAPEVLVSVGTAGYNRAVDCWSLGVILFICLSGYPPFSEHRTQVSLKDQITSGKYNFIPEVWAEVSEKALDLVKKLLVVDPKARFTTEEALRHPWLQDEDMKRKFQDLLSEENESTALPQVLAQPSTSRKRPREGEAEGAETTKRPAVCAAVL
UniProt P07333, whole entry: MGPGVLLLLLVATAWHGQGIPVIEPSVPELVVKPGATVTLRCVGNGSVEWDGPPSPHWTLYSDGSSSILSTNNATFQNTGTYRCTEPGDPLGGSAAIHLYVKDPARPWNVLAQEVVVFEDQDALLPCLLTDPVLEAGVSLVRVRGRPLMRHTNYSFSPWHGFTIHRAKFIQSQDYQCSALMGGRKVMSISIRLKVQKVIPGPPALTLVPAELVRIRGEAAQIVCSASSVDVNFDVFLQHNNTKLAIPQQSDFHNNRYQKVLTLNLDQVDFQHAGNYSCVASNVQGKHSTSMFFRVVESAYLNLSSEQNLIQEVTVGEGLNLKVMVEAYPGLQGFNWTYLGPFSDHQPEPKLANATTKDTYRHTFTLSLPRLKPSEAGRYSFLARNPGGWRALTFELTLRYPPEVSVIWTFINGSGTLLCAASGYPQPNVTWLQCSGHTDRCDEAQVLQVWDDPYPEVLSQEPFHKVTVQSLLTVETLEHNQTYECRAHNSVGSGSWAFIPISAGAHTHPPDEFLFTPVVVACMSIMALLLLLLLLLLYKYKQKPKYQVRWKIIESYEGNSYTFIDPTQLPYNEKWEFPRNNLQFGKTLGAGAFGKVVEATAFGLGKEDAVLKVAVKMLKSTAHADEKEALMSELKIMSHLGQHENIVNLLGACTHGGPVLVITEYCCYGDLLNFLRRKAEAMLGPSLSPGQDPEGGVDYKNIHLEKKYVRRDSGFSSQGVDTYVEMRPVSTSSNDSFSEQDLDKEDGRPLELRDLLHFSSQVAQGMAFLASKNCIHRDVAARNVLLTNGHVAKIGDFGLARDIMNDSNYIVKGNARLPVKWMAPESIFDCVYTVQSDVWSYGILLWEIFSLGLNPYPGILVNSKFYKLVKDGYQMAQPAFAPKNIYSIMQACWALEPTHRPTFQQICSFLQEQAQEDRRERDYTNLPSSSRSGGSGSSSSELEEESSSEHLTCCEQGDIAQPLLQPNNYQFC
UniProt P41240: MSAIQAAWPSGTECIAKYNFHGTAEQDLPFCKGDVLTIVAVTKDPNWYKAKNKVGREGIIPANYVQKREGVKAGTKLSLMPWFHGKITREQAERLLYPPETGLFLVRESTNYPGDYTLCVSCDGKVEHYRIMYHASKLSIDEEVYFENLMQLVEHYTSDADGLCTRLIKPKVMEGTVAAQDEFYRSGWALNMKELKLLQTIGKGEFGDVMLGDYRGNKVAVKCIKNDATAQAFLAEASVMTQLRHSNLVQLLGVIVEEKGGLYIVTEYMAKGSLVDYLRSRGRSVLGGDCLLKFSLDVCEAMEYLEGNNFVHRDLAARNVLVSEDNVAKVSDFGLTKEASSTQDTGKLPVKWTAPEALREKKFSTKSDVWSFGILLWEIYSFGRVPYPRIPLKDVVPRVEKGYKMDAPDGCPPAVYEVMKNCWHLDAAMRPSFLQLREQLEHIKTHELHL

Legend:
Test in all cases: number of time points (of 5) at which kinase-Nluc abundance scored as decreased, DMSO-normalised (count); higher = more persistent destabilization
Details in all cases: K562; 2-18 h
[1] = target: CAMK2A (UniProt Q9UQM7)
[2] = target: CAMK2G (UniProt Q13555)
[3] = target: CDK10 (UniProt Q15131)
[4] = target: CDK2 (UniProt P24941)
[5] = target: CDK3 (UniProt Q00526)
[6] = target: CDK5 (UniProt Q00535)
[7] = target: CDK6 (UniProt Q00534)
[8] = target: CHEK2 (UniProt O96017)
[9] = target: CSF1R (UniProt P07333)
[10] = target: CSK (UniProt P41240)

Measured: number of time points

CNc1cc(Nc2cccn(-c3ccccn3)c2=O)nn2c(C(=O)N[C@@H]3C[C@@H]3F)cnc12 (2.5 µM)
1: [7]
0: all other assays above

Cc1ccn2c(C(=O)C(=O)c3ccccc3)c(-c3ccccc3)nc2c1 (10 µM)
0: all assays above

CNC(=O)c1ccccc1Nc1nc(Nc2ccc3c(c2OC)CCC[C@H](N2CCN(CCO)CC2)C3)ncc1Cl (10 µM)
2: [8]
1: [2]
0: all other assays above

C[C@@H]1CN(c2cc(-c3n[nH]c4ccc(OC5(C)CC5)cc34)ncn2)C[C@H](C)O1 (10 µM)
0: all assays above

Oc1ccc(/C=C/c2cc(O)cc(O)c2)cc1 [Resveratrol] (10 µM)
0: all assays above

Cc1cc2sc(NC(=O)Cc3ccccc3)nc2cc1Cl (10 µM)
0: all assays above

COc1cc2ncnc(Nc3ccccc3)c2cc1OC (10 µM)
0: all assays above

C=CC(=O)N1C(=O)CC(c2ccc(F)cc2)Sc2ccccc21 (stereo not drawn) [GSK-3β inhibitor 3] (10 µM)
3: [8]
0: all other assays above

C[C@H](NC(=O)[C@H]1NCC[C@@H]1O)c1ccc(-c2noc(CCC3CCCC3)n2)cc1 (10 µM)
0: all assays above

O=C(Nc1cccc(Nc2ncc(Br)c(NCCc3cnc[nH]3)n2)c1)N1CCCC1 (10 µM)
0: all assays above

Sorted by molar mass (smallest number first): 3 of the compounds above
COc1cc2ncnc(Nc3ccccc3)c2cc1OC (10 µM)
0: all assays above

Cc1cc2sc(NC(=O)Cc3ccccc3)nc2cc1Cl (10 µM)
0: all assays above

O=C(Nc1cccc(Nc2ncc(Br)c(NCCc3cnc[nH]3)n2)c1)N1CCCC1 (10 µM)
0: all assays above

(continued)

Nc1ncnc2c1c(-c1ccc(Oc3ccccc3)cc1)nn2C1CCN(CCOCCOCCOc2ccc3c(c2)CN(C2CCC(=O)NC2=O)C3=O)CC1 (stereo not given) (2.5 µM)
0: all assays above

CN1CC[C@@H](c2c(O)cc(O)c3c(=O)cc(-c4ccc(C(F)(F)F)cc4Cl)oc23)[C@@H]1CO [Voruciclib (hydrochloride)] (10 µM)
0: all assays above

Cc1cccc2c3c(ccc12)C(=O)C1=C(OCC1C)C3=O (stereo not given) [Dihydroisotanshinone I] (2.5 µM)
0: all assays above

FC(F)(F)c1ccc(/C=C/c2nc(COc3ccc(CCCCn4ccnn4)cc3)co2)cc1 [Mubritinib] (10 µM)
0: all assays above

COc1cc(-c2cn[nH]c2)ccc1C(=O)Nc1ccc2c(c1)CCNCC2 (10 µM)
0: all assays above

COc1cc(N(C)CCN(C)C)c(N)cc1Nc1nccc(-c2cn(C)c3ccccc23)n1 [Mutated EGFR-IN-1] (10 µM)
0: all assays above

C[C@H](Nc1ncnc2nc[nH]c12)c1cc2cccc(Cl)c2c(=O)n1-c1ccccc1 [Duvelisib] (10 µM)
0: all assays above

C#Cc1cccc(Nc2ncnc3cc(OC)c(OCCCCCCC(=O)NO)cc23)c1 (2.5 µM)
0: all assays above

Cc1c(-c2ccc(C(N)=O)c3[nH]c4cc(C(C)(C)O)ccc4c23)cccc1-n1cnc2ccccc2c1=O (2.5 µM)
0: all assays above

CCCCCCCCCCCCCCCCOP(=O)([O-])OCC[N+](C)(C)C [Miltefosine] (10 µM)
0: all assays above

Cn1cc2cc(C(F)(F)c3nnc4ccc(-c5cnn(C6CC6)c5)nn34)c(F)cc2n1 [Bozitinib] (10 µM)
2: [9]
0: all other assays above

CCOC(=O)N1C/C(=C/c2ccccc2F)C(=O)/C(=C\c2ccccc2F)C1 (2.5 µM)
0: all assays above

COc1cc(N2CCOCC2)ccc1Nc1ncc(Cl)c(Nc2ccccc2NS(C)(=O)=O)n1 (2.5 µM)
0: all assays above

O=C(O)c1cc(N(Cc2ccccc2O)Cc2ccccc2O)ccc1O [Lavendustin B] (10 µM)
0: all assays above

CC(C)(O)[C@H]1CC[C@H](Nc2ccc3ncc(-c4cccc(C(F)(F)F)c4)n3n2)CC1 (10 µM)
0: all assays above

Cc1ccc(NC(=O)c2ccnc(C(F)(F)F)c2)cc1-c1cc(OCCO)nc(N2CCOCC2)c1 (10 µM)
0: all assays above

COc1ccc2cc(-c3nc(-c4ccc([S+](C)[O-])cc4)[nH]c3-c3ccncc3)ccc2c1 (stereo not given) [Tie2 kinase inhibitor 1] (2.5 µM)
0: all assays above

C[C@@H]1COCCN1c1nc(-c2cnc(N)cc2C(F)F)nc(N2[C@H](C)COC[C@@H]2C)n1 (2.5 µM)
0: all assays above

Nc1ncnc2c1c(COc1cccc(Cl)c1)nn2C1CCOCC1 (10 µM)
0: all assays above

O=c1[nH]c(C2CCCN2)nc2c1oc1ccc(Cl)cc12 (stereo not given) [XL413 (hydrochloride)] (10 µM)
0: all assays above

COc1cc(/C=C/C(=O)N2CCC=CC2=O)cc(OC)c1OC [Piperlongumine] (2.5 µM)
4: [8]
0: all other assays above

COc1ccc(-c2coc3cc(O)ccc3c2=O)cc1 [Formononetin] (10 µM)
0: all assays above

CN(C)CCC=C1c2ccccc2CCc2ccccc21 [Amitriptyline (hydrochloride)] (2.5 µM)
0: all assays above

O=C1/C(=C\c2ccc(Cl)cc2)C=C(c2ccccc2)N1c1ccc(O)cc1 (2.5 µM)
0: all assays above

O=C(CNc1cccc(Cl)c1)NC1CCCN(c2ncnc3[nH]ccc23)C1 (stereo not given) (10 µM)
0: all assays above

CNc1nc(Nc2ccc(C(=O)N3CCOCC3)cc2OC)ncc1Cl (2.5 µM)
0: all assays above

COc1nn(C)cc1Nc1nccc(-c2c[nH]c3c(NC(=O)[C@@H](C)N4CCN(C)CC4)cccc23)n1 (10 µM)
0: all assays above
